According to the supplement of paper PMC10849652:
This is one part of the list.

Chains of the proteins cited; added tags and fusions are not shown. Lines headed by an entry give the natural chain unless they say otherwise; changes in a name come on top.
UniProt P50148, whole entry, looked up: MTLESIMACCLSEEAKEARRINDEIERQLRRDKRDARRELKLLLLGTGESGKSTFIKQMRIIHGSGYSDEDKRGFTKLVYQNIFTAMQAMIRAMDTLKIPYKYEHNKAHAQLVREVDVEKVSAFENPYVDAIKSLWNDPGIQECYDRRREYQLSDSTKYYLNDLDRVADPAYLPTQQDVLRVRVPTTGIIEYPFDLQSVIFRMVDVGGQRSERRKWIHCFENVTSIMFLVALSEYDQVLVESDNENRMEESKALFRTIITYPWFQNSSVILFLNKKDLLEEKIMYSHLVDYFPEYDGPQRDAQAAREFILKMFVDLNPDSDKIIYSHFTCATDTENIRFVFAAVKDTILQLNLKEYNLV
UniProt Q99795: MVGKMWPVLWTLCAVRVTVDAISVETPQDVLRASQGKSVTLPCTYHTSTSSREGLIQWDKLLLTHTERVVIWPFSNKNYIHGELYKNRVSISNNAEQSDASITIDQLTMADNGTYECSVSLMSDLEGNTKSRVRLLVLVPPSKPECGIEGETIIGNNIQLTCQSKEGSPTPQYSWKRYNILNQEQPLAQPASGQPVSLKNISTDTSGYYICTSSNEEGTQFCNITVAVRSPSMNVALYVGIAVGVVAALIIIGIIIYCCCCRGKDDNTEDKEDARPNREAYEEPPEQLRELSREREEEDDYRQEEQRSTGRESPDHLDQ
UniProt P35754: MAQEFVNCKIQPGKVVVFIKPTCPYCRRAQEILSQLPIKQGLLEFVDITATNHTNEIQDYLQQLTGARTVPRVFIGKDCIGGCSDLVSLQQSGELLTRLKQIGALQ
UniProt P63092, whole entry, looked up: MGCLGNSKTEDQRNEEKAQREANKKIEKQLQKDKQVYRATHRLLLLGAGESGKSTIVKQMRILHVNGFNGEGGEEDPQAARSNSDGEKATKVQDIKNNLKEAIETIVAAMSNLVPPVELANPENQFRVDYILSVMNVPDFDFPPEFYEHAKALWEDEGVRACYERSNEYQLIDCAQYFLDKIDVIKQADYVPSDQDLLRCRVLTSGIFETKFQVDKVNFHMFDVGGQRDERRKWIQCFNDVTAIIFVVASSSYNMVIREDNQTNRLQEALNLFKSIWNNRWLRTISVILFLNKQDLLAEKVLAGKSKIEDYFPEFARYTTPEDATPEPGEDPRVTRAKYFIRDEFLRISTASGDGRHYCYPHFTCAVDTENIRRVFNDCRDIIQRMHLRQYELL
UniProt Q9NU53: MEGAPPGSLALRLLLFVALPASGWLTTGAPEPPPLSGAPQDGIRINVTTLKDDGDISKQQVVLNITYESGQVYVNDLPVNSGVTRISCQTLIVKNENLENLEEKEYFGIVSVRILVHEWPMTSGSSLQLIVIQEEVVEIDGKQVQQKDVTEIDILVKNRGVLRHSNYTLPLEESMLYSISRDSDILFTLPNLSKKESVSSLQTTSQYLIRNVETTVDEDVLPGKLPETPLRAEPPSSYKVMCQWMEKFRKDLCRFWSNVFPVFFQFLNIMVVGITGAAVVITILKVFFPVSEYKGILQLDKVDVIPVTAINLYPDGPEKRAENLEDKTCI
UniProt P46926: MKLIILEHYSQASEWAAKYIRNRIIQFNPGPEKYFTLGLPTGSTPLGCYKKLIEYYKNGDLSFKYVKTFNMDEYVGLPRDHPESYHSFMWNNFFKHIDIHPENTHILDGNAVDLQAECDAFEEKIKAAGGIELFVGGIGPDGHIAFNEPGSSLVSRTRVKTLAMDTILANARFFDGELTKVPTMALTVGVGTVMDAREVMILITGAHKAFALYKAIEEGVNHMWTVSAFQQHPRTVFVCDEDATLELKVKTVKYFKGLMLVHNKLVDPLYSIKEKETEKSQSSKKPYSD
UniProt Q9Y248: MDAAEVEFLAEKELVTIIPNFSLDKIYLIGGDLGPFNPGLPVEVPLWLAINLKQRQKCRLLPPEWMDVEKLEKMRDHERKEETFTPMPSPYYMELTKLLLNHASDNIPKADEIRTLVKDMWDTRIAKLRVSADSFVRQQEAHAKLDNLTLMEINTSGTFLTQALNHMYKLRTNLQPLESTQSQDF
UniProt Q5VSY0: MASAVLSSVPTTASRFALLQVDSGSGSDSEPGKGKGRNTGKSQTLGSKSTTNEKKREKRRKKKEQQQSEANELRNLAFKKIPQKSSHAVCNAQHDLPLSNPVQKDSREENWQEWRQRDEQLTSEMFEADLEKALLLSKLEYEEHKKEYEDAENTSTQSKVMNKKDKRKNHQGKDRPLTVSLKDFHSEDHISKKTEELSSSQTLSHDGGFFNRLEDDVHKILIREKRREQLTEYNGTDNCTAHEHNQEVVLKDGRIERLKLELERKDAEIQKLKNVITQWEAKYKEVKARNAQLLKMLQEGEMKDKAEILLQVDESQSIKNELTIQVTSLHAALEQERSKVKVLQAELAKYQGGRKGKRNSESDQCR
UniProt O76003: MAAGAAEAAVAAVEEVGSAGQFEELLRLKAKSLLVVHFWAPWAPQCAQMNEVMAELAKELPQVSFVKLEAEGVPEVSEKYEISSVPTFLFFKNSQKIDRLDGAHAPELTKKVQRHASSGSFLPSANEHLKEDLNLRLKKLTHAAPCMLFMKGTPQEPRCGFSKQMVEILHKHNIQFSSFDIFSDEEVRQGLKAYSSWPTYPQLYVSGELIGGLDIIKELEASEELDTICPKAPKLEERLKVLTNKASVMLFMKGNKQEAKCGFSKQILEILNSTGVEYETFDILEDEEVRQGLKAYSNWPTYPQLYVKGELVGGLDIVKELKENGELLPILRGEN
UniProt Q86UL3: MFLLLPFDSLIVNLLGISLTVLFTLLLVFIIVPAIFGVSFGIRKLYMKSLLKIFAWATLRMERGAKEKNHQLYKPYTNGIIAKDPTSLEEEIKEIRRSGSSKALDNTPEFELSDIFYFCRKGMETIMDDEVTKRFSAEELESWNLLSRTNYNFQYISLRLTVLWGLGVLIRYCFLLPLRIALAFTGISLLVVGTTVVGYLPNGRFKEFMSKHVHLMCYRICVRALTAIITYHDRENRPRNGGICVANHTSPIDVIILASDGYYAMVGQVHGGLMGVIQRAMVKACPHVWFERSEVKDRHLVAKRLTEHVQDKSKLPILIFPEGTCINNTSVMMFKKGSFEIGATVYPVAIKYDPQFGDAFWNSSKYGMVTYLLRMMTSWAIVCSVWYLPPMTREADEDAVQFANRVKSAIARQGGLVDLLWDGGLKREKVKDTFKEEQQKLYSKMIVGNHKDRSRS
UniProt Q86VQ1: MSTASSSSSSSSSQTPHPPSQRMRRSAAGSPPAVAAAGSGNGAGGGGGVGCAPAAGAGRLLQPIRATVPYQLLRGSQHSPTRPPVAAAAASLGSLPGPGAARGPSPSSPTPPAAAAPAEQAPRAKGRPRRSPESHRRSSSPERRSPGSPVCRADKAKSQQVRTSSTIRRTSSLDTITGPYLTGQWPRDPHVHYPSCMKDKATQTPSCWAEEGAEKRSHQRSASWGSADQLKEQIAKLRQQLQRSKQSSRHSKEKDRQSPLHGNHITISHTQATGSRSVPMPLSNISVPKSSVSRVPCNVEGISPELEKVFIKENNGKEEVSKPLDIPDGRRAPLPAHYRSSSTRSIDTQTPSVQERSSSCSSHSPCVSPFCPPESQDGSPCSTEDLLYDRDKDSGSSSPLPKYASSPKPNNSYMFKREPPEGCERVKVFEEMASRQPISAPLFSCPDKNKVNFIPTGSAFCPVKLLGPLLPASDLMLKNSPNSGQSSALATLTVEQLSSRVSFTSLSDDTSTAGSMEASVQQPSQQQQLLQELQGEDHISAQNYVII
UniProt Q03113, whole entry, looked up: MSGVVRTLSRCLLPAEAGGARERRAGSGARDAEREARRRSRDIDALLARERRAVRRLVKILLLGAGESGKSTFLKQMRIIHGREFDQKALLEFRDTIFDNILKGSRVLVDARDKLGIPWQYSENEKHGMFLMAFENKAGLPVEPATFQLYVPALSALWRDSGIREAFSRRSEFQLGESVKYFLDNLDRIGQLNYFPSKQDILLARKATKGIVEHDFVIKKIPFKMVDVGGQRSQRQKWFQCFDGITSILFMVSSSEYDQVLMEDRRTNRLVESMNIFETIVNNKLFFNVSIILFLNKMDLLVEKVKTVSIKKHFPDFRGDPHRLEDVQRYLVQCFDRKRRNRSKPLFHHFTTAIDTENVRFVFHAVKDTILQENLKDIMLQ
UniProt Q15743: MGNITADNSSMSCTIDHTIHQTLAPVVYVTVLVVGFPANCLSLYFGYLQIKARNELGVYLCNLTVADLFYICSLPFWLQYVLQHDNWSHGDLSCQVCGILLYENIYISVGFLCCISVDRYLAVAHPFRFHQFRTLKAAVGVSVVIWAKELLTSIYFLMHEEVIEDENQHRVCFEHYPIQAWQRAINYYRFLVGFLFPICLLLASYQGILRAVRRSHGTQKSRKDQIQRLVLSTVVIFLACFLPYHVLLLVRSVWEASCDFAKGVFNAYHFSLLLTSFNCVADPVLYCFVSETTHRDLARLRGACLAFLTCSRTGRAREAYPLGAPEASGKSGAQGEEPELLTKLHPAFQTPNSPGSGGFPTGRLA
UniProt O75420: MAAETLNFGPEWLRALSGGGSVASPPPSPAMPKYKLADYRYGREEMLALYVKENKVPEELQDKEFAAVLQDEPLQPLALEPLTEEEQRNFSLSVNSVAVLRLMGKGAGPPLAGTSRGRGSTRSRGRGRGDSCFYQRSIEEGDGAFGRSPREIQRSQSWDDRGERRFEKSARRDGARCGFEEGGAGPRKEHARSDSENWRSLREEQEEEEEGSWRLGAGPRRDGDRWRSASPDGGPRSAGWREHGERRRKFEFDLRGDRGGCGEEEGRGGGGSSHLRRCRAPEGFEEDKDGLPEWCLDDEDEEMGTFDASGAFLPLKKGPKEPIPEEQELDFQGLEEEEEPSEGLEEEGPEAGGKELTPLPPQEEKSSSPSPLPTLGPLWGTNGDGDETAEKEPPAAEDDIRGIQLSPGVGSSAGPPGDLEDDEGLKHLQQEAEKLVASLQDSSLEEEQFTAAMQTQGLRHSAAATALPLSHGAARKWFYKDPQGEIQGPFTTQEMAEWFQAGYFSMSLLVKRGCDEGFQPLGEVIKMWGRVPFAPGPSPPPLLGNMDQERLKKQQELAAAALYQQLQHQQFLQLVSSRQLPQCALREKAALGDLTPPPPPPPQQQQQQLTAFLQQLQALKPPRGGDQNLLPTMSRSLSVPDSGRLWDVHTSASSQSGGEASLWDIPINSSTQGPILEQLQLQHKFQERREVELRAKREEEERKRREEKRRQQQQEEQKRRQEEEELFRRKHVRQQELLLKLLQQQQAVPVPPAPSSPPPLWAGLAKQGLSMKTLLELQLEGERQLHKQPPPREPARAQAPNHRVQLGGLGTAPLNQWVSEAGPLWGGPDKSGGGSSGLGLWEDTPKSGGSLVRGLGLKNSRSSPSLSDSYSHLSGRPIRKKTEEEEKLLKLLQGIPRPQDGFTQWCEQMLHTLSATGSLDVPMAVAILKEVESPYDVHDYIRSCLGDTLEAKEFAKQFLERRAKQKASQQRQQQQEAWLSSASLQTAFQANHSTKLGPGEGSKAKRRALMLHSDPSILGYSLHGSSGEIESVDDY
UniProt Q9NQX3: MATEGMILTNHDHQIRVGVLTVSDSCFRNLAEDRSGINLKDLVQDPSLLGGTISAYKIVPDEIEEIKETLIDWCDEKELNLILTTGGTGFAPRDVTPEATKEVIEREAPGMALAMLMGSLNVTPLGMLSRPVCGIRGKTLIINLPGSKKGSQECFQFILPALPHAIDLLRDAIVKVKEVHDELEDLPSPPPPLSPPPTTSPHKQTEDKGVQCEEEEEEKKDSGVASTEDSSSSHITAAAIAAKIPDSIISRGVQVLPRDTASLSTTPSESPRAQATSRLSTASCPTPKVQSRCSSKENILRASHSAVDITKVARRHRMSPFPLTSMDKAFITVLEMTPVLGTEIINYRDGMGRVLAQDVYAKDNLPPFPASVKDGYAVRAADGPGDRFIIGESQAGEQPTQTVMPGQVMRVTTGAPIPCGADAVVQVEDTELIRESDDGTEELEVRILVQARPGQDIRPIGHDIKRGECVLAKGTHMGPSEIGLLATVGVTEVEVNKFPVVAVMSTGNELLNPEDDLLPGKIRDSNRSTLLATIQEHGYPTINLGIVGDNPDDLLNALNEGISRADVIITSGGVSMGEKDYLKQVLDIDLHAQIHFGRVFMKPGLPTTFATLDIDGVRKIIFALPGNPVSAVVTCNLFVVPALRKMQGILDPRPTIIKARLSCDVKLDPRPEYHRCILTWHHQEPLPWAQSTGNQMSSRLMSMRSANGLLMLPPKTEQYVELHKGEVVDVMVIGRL
UniProt Q5T7V8: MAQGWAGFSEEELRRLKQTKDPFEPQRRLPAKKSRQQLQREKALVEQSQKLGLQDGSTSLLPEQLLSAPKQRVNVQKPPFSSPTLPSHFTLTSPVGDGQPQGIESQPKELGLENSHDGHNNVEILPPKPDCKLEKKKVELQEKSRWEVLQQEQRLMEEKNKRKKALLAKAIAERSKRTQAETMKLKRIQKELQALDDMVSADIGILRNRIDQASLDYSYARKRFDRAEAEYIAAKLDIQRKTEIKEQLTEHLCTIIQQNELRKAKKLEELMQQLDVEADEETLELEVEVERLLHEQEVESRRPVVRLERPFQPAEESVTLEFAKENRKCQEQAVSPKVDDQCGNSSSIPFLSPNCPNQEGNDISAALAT

Assays:
Assay in all cases: log2 fold change, soluble protein after heating vs DMSO (PISA); higher = thermal stabilisation; K562 lysate, 10 uM; active = over 0.2 and 3.5 SD of the protein, either way, in both replicates (recomputed)
[1] = compound: NCC(=O)Nc1ccc(-n2nc(C(F)(F)F)cc2-c2ccc3c(ccc4ccccc43)c2)cc1
Method in brief: (§1)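 Quantification was by TMTpro 16plex LC-MS/MS with equalised channel sums, applied to the supernatant after 21,000xg for 90 min. Samples were crude K562 extract at 1 mg/mL protein in PBS pH 7.4 with 1 mM MgCl2, treated with 10 μM compound for 30 min, heated for 3 min across 48°C-58°C, pooled and brought to 0.5% NP-40 at 4°C. Values are log-two fold changes in thermal stability relative to solvent controls, from duplicates.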

vorinostat = compound: O=C(CCCCCCC(=O)Nc1ccccc1)NO [vorinostat]
Method in brief: as §1

silmitasertib = compound: O=C(O)c1ccc2c(c1)nc(Nc1cccc(Cl)c1)c1ccncc12 [silmitasertib]
Method in brief: as §1

[2] = compound: O=C1NC(=O)C(c2cnc3ccccn23)=C1c1cn2c3c(cc(F)cc13)CN(C(=O)N1CCCCC1)CC2
Method in brief: as §1

entospletinib = compound: c1cn2cc(-c3ccc4cn[nH]c4c3)nc(Nc3ccc(N4CCOCC4)cc3)c2n1 [entospletinib]
Method in brief: as §1

Measured: log2 fold change

GNAQ (UniProt P50148)
inactive: [1] -0.005 | vorinostat 0.094 | silmitasertib -0.038 | [2] -0.017 | entospletinib 0.049

GPA33 (UniProt Q99795)
inactive: [1] 0.041 | vorinostat 0.14 | silmitasertib 0.051 | entospletinib 0.017

GLRX (UniProt P35754)
inactive: [1] 0.012 | [2] -0.032 | entospletinib 0.013

GNAS isoform 3 (UniProt P63092)
inactive: vorinostat 0.138 | silmitasertib 0.066 | [2] -0.106

GPN2 (UniProt Q9H9Y4)
inactive: [1] 0.006 | vorinostat -0.093 | silmitasertib 0.009 | [2] -0.062 | entospletinib 0.203

GLCE (UniProt O94923)
inactive: vorinostat -0.077 | silmitasertib -0.011 | [2] 0.118 | entospletinib -0.032

2 consecutive records already listed:
GPN2 (UniProt Q9H9Y4)
inactive: [1] 0.006 | vorinostat -0.093 | silmitasertib 0.009 | [2] -0.062 | entospletinib 0.203

GLCE (UniProt O94923)
inactive: vorinostat -0.077 | silmitasertib -0.011 | [2] 0.118 | entospletinib -0.032

Carrying on.

GOLGA5 (UniProt Q8TBA6)
inactive: [1] -0.007 | vorinostat 0.088 | silmitasertib 0.027 | [2] -0.019 | entospletinib -0.053

GPATCH2L (UniProt Q9NWQ4)
inactive: [2] -0.014 | entospletinib -0.171

GINM1 (UniProt Q9NU53)
inactive: vorinostat 0.129 | silmitasertib -0.083 | [2] 0.175

GOLIM4 (UniProt F8W785)
inactive: [2] -0.045

GNPDA1 (UniProt P46926)
inactive: [1] -0.002 | vorinostat 0.114 | silmitasertib 0.001 | [2] 0.004 | entospletinib -0.003

GINS2 (UniProt Q9Y248)
inactive: [1] -0.204 | vorinostat 0.06 | silmitasertib -0.013 | [2] 0.03 | entospletinib -0.041

GK5 (UniProt Q6ZS86)
inactive: [2] 0.241

GKAP1 (UniProt Q5VSY0)
inactive: [2] -0.111

GPRASP2 (UniProt Q96D09)
inactive: [1] -0.013 | entospletinib 0.107

GGT1 (UniProt P19440)
inactive: [1] -0.026 | vorinostat 0.09 | silmitasertib 0.004 | [2] -0.021 | entospletinib 0.001

GPLD1 (UniProt P80108)
inactive: [2] 0.366

GLRX3 (UniProt O76003)
inactive: [1] -0.004 | vorinostat -0.165 | silmitasertib -0.004 | [2] 0.035 | entospletinib 0.026

GPATCH3 (UniProt Q96I76)
inactive: vorinostat 0.071 | silmitasertib -0.073 | [2] 0.084

GPAT4 (UniProt Q86UL3)
inactive: [1] 0.02 | vorinostat 0.123 | silmitasertib 0.031 | [2] -0.007 | entospletinib 0

GLCCI1 (UniProt Q86VQ1)
inactive: [1] 0.064 | vorinostat 0.074 | silmitasertib -0.013 | [2] 0.003 | entospletinib -0.028

GNA12 (UniProt Q03113)
inactive: [1] 0.263 | [2] 0.032 | entospletinib -0.085

GOSR1 (UniProt E9PCW1)
inactive: [2] 0.157

GLMN (UniProt Q92990)
inactive: [1] -0.008 | vorinostat -0.179 | silmitasertib 0.02 | [2] -0.031 | entospletinib 0.027

GPATCH8 (UniProt Q9UKJ3)
inactive: [1] 0.066 | vorinostat -0.041 | silmitasertib 0 | [2] 0.03 | entospletinib 0.006

GIPC3 (UniProt Q8TF64)
inactive: vorinostat -0.336 | silmitasertib 0.044 | [2] -0.007 | entospletinib -0.017

GNPTAB (UniProt Q3T906)
inactive: vorinostat 0.168 | silmitasertib -0.003 | [2] -0.001

GPNMB (UniProt Q14956)
inactive: [2] 0.782

GOLGA4 isoform 5 (UniProt Q13439)
inactive: [1] 0.033 | vorinostat -0.062 | silmitasertib 0.007 | [2] 0.016 | entospletinib -0.011

GPR68 (UniProt Q15743)
inactive: [2] -0.037

GIGYF1 (UniProt O75420)
inactive: [1] 0.144 | vorinostat -0.074 | silmitasertib 0.053 | [2] -0.046 | entospletinib -0.064

GPHN isoform 2 (UniProt Q9NQX3)
inactive: [1] 0.031 | vorinostat 0.033 | silmitasertib -0.056 | [2] -0.005 | entospletinib -0.004

GMPPA (UniProt Q96IJ6)
inactive: [1] -0.022 | vorinostat -0.01 | silmitasertib -0.025 | [2] -0.001 | entospletinib -0.04

GORAB (UniProt Q5T7V8)
inactive: [1] -0.081 | vorinostat -0.039 | silmitasertib -0.088 | [2] 0.006 | entospletinib -0.02
